Source: patent US20250009808A1
No constants are given. Whether binding was seen depends on the method and setting. Some results given as binding are weak or reduced against the parent protein; the word gives no strength. Where a sequence is shown, tags or fusion partners need not be part of it.

B1: anti-RT1A antibody (aRT1), mouse IgG1 / mouse kappa, encoded by SEQ ID NO:14 and SEQ ID NO:17 (antibody, V domains shown)
VH: EVQLQESGPSLVKPSQTLSLTCSVTGDSITSGYWNWIRKFPGNKLEYMGYISYSGSTYYNPSLKSRISITRDTSKNQYYLQLNSVTTEDTATYYCASHSHWYFDVWGAGTTVTVSS
VL: DIQMTQTTSSLSASLGDRVTISCRASQDISNYLNWYQQKPDGTVKLLIYYTSRLHSGVPSRFSGSGSGTDYSLTISNLEQEDIATYFCQQGNTLPWTFGGGTKLEIKR
B2: direct-magnetic-bead conjugated anti-RT1A antibody (antibody, V domains shown)
VH: B1 VH
VL: B1 VL

Legend:
[1] = biological target: T1, rat RT1A class I histocompatibility antigen (rat (Rattus norvegicus)) (UniProt P16391); assay: magnetic negative selection of rat cells from a xenomixture, with a magnetic bead conjugated secondary antibody
T1 sequence (MHC heavy): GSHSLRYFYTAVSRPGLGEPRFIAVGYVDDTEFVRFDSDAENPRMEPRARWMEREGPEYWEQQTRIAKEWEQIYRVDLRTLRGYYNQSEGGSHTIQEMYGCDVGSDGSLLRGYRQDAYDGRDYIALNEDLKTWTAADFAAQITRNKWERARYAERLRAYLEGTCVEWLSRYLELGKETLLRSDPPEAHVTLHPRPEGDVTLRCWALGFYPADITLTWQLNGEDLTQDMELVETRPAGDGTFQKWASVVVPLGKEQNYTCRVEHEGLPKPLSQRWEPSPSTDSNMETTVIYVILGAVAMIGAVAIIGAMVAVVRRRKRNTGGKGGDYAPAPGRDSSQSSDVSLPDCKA

[2] = biological target: T1, rat RT1A class I histocompatibility antigen (rat (Rattus norvegicus)); assay: rat cells with unconjugated primary and magnetic secondary antibody; percent of cells retained on magnetic column (positive control)
[3] = biological target: T1, rat RT1A class I histocompatibility antigen (rat (Rattus norvegicus)); assay: rat cells with bead-conjugated antibody; retention on magnetic column

| binding [1] | binding [2] | binding [3] | Binder |
| --- | --- | --- | --- |
| binds | binds | – | B1 |
| – | – | binds | B2 |
